Measurements reported in article PMC2795164.

Chains of the proteins cited; added tags and fusions are not shown. Where a name states a change or a piece, a line headed by the entry shows the natural chain unless it says otherwise. A line that says so, or that is headed by a name, gives the form on record, which may keep a tag or linker.
UniProt Q90WR8: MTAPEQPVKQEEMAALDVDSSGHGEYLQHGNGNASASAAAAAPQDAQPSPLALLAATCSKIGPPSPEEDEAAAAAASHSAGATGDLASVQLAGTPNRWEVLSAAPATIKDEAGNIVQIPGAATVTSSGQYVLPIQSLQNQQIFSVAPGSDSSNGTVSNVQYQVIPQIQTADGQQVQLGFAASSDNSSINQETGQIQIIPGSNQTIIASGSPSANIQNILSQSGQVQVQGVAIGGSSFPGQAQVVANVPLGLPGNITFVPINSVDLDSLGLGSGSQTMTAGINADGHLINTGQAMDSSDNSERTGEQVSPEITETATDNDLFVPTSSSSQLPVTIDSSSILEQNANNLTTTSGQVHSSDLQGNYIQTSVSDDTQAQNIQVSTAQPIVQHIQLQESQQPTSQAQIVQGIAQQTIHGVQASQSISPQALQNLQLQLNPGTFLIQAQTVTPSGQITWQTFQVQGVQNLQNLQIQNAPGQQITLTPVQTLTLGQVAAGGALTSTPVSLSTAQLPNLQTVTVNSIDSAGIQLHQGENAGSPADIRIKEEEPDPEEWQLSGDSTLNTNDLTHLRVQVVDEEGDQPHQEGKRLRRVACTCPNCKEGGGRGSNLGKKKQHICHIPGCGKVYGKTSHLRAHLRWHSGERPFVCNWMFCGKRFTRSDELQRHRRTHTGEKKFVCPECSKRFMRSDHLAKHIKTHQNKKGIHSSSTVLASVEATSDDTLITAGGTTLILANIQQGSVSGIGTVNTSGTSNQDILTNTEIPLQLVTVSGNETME
SP1, erythrocyte nuclear extract (Gallus gallus (chicken), adult erythrocytes), one chain, as listed by the source: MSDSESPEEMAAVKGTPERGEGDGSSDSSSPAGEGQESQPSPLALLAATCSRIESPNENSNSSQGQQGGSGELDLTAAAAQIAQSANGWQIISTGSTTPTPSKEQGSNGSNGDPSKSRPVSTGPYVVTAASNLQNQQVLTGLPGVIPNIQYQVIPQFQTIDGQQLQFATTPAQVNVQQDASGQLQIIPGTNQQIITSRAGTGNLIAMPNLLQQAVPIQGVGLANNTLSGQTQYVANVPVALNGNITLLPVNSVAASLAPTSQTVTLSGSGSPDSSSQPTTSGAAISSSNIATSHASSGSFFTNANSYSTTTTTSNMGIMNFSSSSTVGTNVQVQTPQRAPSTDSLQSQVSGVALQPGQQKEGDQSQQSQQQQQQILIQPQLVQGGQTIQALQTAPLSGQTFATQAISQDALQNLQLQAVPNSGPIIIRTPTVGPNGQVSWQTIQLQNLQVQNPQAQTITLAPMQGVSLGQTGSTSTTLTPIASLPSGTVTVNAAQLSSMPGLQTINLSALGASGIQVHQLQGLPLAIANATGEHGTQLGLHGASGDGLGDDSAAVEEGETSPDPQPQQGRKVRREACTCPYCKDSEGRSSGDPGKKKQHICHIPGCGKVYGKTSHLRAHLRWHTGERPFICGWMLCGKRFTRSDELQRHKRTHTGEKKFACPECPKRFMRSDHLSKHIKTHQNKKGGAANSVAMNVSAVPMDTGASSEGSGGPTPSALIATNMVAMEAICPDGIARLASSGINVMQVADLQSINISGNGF

Tests used:
[1] = biological target: T1, VEZF1 (BGP1) (Gallus gallus (chicken)) (UniProt I6LDD9); assay: competition with a labelled probe; details: 50-fold excess competitor, betaA probe, at least 7 G needed; EMSA buffer; competitors at 50-fold molar excess; protein translated in vitro; residues 1-555
T1 sequence (looked up): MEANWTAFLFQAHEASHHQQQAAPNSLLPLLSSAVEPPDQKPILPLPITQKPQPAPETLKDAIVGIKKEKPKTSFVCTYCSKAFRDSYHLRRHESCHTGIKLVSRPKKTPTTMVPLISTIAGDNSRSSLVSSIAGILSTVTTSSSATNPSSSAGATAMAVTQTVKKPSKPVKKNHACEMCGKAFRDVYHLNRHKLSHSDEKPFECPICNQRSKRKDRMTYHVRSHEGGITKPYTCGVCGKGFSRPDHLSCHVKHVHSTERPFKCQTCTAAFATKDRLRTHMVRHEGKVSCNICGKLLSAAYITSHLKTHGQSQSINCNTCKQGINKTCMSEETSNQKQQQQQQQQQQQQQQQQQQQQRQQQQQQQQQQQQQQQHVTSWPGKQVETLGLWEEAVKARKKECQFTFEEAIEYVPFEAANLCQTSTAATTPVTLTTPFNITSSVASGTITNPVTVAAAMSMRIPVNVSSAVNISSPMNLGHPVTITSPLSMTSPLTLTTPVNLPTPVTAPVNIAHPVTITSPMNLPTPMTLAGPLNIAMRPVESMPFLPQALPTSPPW

[2] = system: SP1, erythrocyte nuclear extract (Gallus gallus (chicken), adult erythrocytes); assay: EMSA supershift; details: EMSA buffer, competitors at 50-fold molar excess, protein in an extract, label: 32P (probe)
[3] = biological target: SP3, erythrocyte nuclear extract (Gallus gallus (chicken), adult erythrocytes) (UniProt Q90WR8); assay: EMSA supershift; details: EMSA buffer, competitors at 50-fold molar excess, protein in an extract, label: 32P (probe)
[4] = biological target: T2, VEZF1 (BGP1), erythrocyte nuclear extract (Gallus gallus (chicken), adult erythrocytes) (UniProt I6LDD9); assay: EMSA supershift; details: EMSA buffer, competitors at 50-fold molar excess, protein in an extract, label: 32P (probe)
T2 sequence (looked up, limits assumed): T1 sequence (looked up)

[5] = biological target: T3, ZF5, erythrocyte nuclear extract (Gallus gallus (chicken), adult erythrocytes) (UniProt Q92010); assay: DNA affinity chromatography + MS/MS; details: eluted at 400 mM KCl; protein in an extract
T3 sequence (looked up, limits assumed): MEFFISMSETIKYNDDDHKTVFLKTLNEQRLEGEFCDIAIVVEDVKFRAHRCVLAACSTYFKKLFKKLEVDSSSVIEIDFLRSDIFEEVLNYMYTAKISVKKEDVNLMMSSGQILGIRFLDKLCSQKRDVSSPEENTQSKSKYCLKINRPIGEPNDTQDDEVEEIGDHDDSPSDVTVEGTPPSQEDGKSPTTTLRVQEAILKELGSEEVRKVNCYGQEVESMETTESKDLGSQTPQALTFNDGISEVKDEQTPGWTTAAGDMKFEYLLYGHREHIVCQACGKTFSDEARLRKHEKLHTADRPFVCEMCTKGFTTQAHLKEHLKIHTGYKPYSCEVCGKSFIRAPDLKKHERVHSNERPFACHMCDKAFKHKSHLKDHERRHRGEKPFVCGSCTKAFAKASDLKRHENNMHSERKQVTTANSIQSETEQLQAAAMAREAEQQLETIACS

[6] = biological target: T2, VEZF1 (BGP1), erythrocyte nuclear extract (Gallus gallus (chicken), adult erythrocytes); assay: DNA affinity chromatography + MS/MS; details: eluted at 400 mM KCl; protein in an extract
[7] = system: SP1, erythrocyte nuclear extract (Gallus gallus (chicken), adult erythrocytes); assay: DNA affinity chromatography + MS/MS; details: eluted at 400 mM KCl; protein in an extract
[8] = biological target: SP3, erythrocyte nuclear extract (Gallus gallus (chicken), adult erythrocytes) (UniProt Q90WR8); assay: DNA affinity chromatography + MS/MS; details: eluted at 400 mM KCl; protein in an extract

AATTGCAGAGCTGGGAATCGGGGGGCGGGTGGTGGTGTGG (double strand) [glo 6G]
binding result [1]: binds more weakly

AATTGCAGAGCTGGGAATCGGGGGGGCGGGTGGTGGTGTGG (double strand) [glo 7G]
binding result [1]: binds

AATTGCAGAGCTGGGAATCGGGGGGGGGGGGGGGGCGGGTGGTGGTGTGG (double strand) [glo wt (betaA-globin promoter, G16)]
binding result [2]: binds | binding result [3]: binds | binding result [4]: binds

AGGCGCGCCCCGGTCCGGCGCTCCCCCCGCATCCCCGAGCCGGGGCGCGCCT (double strand) [HS4 FIII wt]
binding result ([4]; unlabelled as competitor): binds

CCTGCAGACACCTGGGGGGATACGGGGAAAAAGCTTTAGG (double strand) [HS4 FV wt]
binding result [4]: binds

GATCGGTCCGGCGCTCCCCCCGCATCCCCGAGCCGGCA / GATCTGCCGGCTCGGGGATGCGGGGGGAGCGCCGGACC [FIII-DA affinity duplex]
binding result [5]: binds | binding result [6]: binds

GATCTCACGGGGACAGCCCCCCCCCAAAGCCCCCA / GATCTGGGGGCTTTGGGGGGGGGCTGTCCCCGTGA [FI-DA affinity duplex]
binding result [7]: binds | binding result [8]: binds | binding result [5]: binds | binding result [6]: binds

GGAGCTCACGGGGACAGCCCCCCCCCAAAGCCCCCAGGGA (double strand) [HS4 FI wt]
binding result ([2]; unlabelled as competitor): binds | binding result ([3]; unlabelled as competitor): binds | binding result ([4]; unlabelled as competitor): binds

For at least one entry, the source does not settle the construct or the ends of the probe. For some of these results: The comparison behind a weaker result is the experiment's own reference, which may not be listed here. For some of these results: At least one verdict was read from the data and is not stated in words by the source. For some of these results: Protein sequences can lack the tags named with them. For some of these results: Results from cells or extracts need not show a direct contact.
